Test results published in PubChem BioAssay AID2517 (National Center for Advancing Translational Sciences (NCATS), 2010).
The campaign covered roughly 350,000 compounds. About 1,200 (0.34%) were called active. The inconclusive results got no clear call from the source; some entries with a clear call stand among them for comparison. Calls come from the whole dose curve; as a rule, active = well fitted inhibition curve with a large enough effect; inconclusive = small, poorly fitted or top-dose-only effect; inactive = no such curve, though single readings can be large or run the other way. Potencies beside an inconclusive call are fits to weak or partial responses and may not hold up.

By UniProt entry, the sequences of proteins in these tests, tags left out.
UniProt P27695, whole entry, looked up: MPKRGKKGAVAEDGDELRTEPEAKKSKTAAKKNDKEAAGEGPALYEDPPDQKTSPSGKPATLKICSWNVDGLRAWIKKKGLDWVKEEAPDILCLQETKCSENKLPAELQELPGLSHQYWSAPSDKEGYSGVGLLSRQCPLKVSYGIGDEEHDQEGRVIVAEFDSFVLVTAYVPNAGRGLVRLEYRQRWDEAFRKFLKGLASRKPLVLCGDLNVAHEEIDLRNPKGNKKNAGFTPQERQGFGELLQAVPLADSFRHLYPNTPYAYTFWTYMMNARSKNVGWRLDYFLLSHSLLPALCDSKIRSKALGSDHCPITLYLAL

Molecular target: DNA repair nuclease/redox regulator APEX1 (Homo sapiens) (UniProt P27695)
Assay: qHTS Assay for Inhibitors of the Human Apurinic/apyrimidinic Endonuclease 1 (APE1); note: nearly all actives have a fitted effect of over 55% in size;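 for activity change, negative = inhibition: plate controls were vehicle for no effect and reference inhibitor for full effect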
Settings: recombinant APE1, TAMRA/BHQ-2 abasic DNA cleavage fluorescence; activity change, negative = inhibition: at 65.8 µM (top of the series)
In short: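 Activity was derived from the fluorescence gain between first and third kinetic reads (60 s intervals, ex 525/em 598 nm) after 50 nM THF-abasic TAMRA/BHQ-2 duplex was added to 0.75 nM APE1 preincubated 15 min with compound.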
Potency is the fitted concentration of half-maximal effect.

Compound | Potency | activity change, negative = inhibition
COC(=O)c1ccccc1NC(=O)CSc1nc(N)cc(=O)[nH]1 | inconclusive: 22.4 µM [inhibitor, single point] | –
O=C(Nc1ccc(-c2cc3ccccc3oc2=O)c(Cl)c1)c1cccnc1 | inconclusive: 1.26 µM [inhibitor, full curve] | –
CCc1ccc(OC)c(S(=O)(=O)NCCOc2ccccc2)c1 | inconclusive: 44.7 µM [inhibitor, single point] | –
O=C(C[C@@H]1C/C=C\C[C@H](NC(=O)OCC2c3ccccc3-c3ccccc32)C(=O)OC[C@@H]2CCCN2C1=O)N[C@H](CO)Cc1ccccc1 | inconclusive: 23.8 µM [inhibitor, single point] | –
S=C(Nc1ccccc1)Nc1nccs1 | inconclusive: 3.55 µM [inhibitor, single point] | –
CS(=O)(=O)N(Cc1ccc(Cl)cc1)c1ccc(C(=O)NCCC2=CCCCC2)cc1 | inconclusive: 2.24 µM [inhibitor, partial curve] | –
O=C(CCC(=O)Nc1cc(C(F)(F)F)ccc1Cl)N/N=C\c1cc([N+](=O)[O-])ccc1O | – | inactive: 13.1%
C=CCn1c(=NC(=O)c2ccc(S(=O)(=O)N3CCCc4ccccc43)cc2)sc2cc(S(N)(=O)=O)ccc21 | inconclusive: 8.91 µM [inhibitor, single point] | –
Cc1sc2nc(CN3CCCCC3)nc(N3CCN(C(=O)c4ccco4)CC3)c2c1C | inconclusive: 0.794 µM [inhibitor, single point] | –
Cc1[nH]n(-c2ccccc2)c(=O)c1/C=N/N1C(=O)c2cccc3cccc(c23)C1=O | inconclusive: 12.6 µM [inhibitor, single point] | –
CC(=O)OC[C@]12CC[C@H]3[C@@](C)(CC[C@H]4C(C)(C)CCC[C@]34C)[C@@H]1C[C@H](C1=CC(=O)O[C@H]1OC(C)=O)O2 | active: 9.47 µM | –
CCCc1c(O)nc(SC2CC(=O)N(c3ccc(OC)cc3)C2=O)[nH]c1=O (centres undefined) | inconclusive: 0.0447 µM [inhibitor, full curve] | –
N#CC1=C(N)OC2=C(C(=O)CC(c3ccccc3)C2)C1c1ccc2c(c1)OCO2 (centres undefined) | inconclusive: 10 µM [inhibitor, partial curve] | –
O=C(O)c1ccccc1N=Nc1c(O)[nH]c2ccc([N+](=O)[O-])cc12 | inconclusive: 26.7 µM [inhibitor, single point] | –
N#Cc1cccc(-c2csc(N3CCC(C(N)=O)CC3)n2)c1 | – | inactive: -9.95%
CC(C)=CCC/C(C)=C/CO/N=C1/C[C@@H](O)[C@@H](O)[C@@H]2[C@@H]3C(=O)N(C[C@@H]4CCCO4)C(=O)[C@H]3CC[C@@H]12 | inconclusive: 3.16 µM [inhibitor, single point] | –
CC(C)(CO)CNC(=O)CCc1nnc(CCCc2ccccc2)o1 | inconclusive: 44.7 µM [inhibitor, single point] | –
COc1cc(OC)cc(C(=O)OCC(=O)c2cc(C)n(CC3CCCO3)c2C)c1 (centres undefined) | – | inactive: -8.15%
O=C(O)c1ccccc1NS(=O)(=O)c1ccc(NN=Cc2cccc(Cl)c2)c([N+](=O)[O-])c1 | inconclusive: 37.7 µM [inhibitor, single point] | –
Brc1ccc(C2=CC(c3ccco3)n3nnnc3N2)cc1 (centres undefined) | inconclusive: 8.91 µM [inhibitor, single point] | –

Single entries from the list:
COC(=O)c1ccccc1NC(=O)CSc1nc(N)cc(=O)[nH]1 – Potency: inconclusive: 22.4 µM [inhibitor, single point]
N#CC1=C(N)OC2=C(C(=O)CC(c3ccccc3)C2)C1c1ccc2c(c1)OCO2 (centres undefined) – Potency: inconclusive: 10 µM [inhibitor, partial curve]

More results follow.

Compound | Potency | activity change, negative = inhibition
COc1ccc(C(=O)c2no[n+]([O-])c2C(=O)c2ccc(OC)cc2)cc1 | – | inactive: -3.8%
O=C1c2cccc(Sc3ccccc3)c2C(=O)c2c(Sc3ccccc3)cccc21 | inconclusive: 5.62 µM [inhibitor, single point] | –
COc1ccc(C(=O)C(C)[n+]2ccc(-c3nnc4n3CCCCC4)cc2)cc1 (centres undefined) | inconclusive: 0.0056 µM [inhibitor, full curve, poor fit] | –
Cc1ccc(N(CC(=O)Nc2ccccc2C(=O)NCc2ccco2)S(=O)(=O)c2ccccc2)cc1C | – | inactive: -4.67%
O=C(c1ccc(Cl)c(S(=O)(=O)N2CCCC2)c1)N1CCN(c2ccc(F)cc2)CC1 | inconclusive: 39.8 µM [inhibitor, single point] | –
C=CCc1ccc(OCCCCN2CC(C)OC(C)C2)c(OC)c1 (centres undefined) | inconclusive: 4.47 µM [inhibitor, single point] | –
O=C(COc1cccc2ccccc12)N/N=C/c1ccccc1OCc1ccc(C(=O)O)cc1 | – | inactive: 5.46%
Cc1oc(C(=O)O)cc1COc1ccc2c3c(c(=O)oc2c1C)CCC3 | inconclusive: 28.2 µM [inhibitor, partial curve] | –
CCN1C(=O)NC(c2ccccc2)C1=O (centres undefined) | inactive | –
CSCCC1NC2(C(=O)Nc3c(Cl)cccc32)[C@@H]2C(=O)N(C3CCCC3)C(=O)[C@H]12 (some centres undefined) | inconclusive: 35.5 µM [inhibitor, single point] | –
O=C(O)CNC(=S)NCc1ccccc1 | inconclusive: 8.91 µM [inhibitor, single point] | –
Cc1cc(F)ccc1S(=O)(=O)Nc1c(C)n(C)n(-c2ccccc2)c1=O | inconclusive: 35.5 µM [inhibitor, single point] | –
H-HSDAIFTQQYSKLLAKLALQKYLASILGSRTSPPP-NH2 | inconclusive: 22.4 µM [inhibitor, single point] | –
CCC(C(=O)OCC(=O)Nc1cc(Cl)cc(Cl)c1)c1ccccc1 (centres undefined) | inconclusive: 39.8 µM [inhibitor, single point] | –
C=CCn1c(SCC(=O)N2c3ccccc3Sc3ccccc32)nnc1-c1ccco1 | – | inactive: -0.628%
O=C(NC(=S)Nc1ccc(N2CCOCC2)c(Cl)c1)c1cncc(Br)c1 | inconclusive: 31.6 µM [inhibitor, single point] | –
N#C/C(=N\Nc1ccccc1F)C(=N)N1CCCCC1 | inconclusive: 3.55 µM [inhibitor, partial curve] | –
CC(C)NC(=S)N(CCc1ccncc1)C(C)C | inconclusive: 0.251 µM [inhibitor, full curve, poor fit] | –
CC(=O)OC[C@@H]1O[C@H](C/C=N\OC[C@@H](C)[C@H](OCc2ccccc2)C(C)C)C=C[C@@H]1OC(C)=O | inconclusive: 3.16 µM [inhibitor, single point] | –
